# Laboratory results reported in publication PMC5996148.
# This is one part of the list. For some of these results: Construct or isoform of the protein are uncertain.
# Assays:
# Assay in all cases: protein microarray (ProtoArray v5.0), streptavidin-Alexa Fluor 647
# Details in all cases: 3'-biotin; 20 mM Tris (pH 7.5), 5 mM MgCl2, 100 mM KCl, 0.1% Tween-20, A/T-rich and random oligonucleotide blockers; temperature not stated; high values mean tight binding
# SYMPK (human) = test system: SYMPK (human)
# SYNGR2 (human) = test system: SYNGR2 (human)
# SYNGR4 (human) = test system: SYNGR4 (human)
# SYTL2 = target: T1, SYTL2 (UniProt Q9HCH5)
# T1 sequence: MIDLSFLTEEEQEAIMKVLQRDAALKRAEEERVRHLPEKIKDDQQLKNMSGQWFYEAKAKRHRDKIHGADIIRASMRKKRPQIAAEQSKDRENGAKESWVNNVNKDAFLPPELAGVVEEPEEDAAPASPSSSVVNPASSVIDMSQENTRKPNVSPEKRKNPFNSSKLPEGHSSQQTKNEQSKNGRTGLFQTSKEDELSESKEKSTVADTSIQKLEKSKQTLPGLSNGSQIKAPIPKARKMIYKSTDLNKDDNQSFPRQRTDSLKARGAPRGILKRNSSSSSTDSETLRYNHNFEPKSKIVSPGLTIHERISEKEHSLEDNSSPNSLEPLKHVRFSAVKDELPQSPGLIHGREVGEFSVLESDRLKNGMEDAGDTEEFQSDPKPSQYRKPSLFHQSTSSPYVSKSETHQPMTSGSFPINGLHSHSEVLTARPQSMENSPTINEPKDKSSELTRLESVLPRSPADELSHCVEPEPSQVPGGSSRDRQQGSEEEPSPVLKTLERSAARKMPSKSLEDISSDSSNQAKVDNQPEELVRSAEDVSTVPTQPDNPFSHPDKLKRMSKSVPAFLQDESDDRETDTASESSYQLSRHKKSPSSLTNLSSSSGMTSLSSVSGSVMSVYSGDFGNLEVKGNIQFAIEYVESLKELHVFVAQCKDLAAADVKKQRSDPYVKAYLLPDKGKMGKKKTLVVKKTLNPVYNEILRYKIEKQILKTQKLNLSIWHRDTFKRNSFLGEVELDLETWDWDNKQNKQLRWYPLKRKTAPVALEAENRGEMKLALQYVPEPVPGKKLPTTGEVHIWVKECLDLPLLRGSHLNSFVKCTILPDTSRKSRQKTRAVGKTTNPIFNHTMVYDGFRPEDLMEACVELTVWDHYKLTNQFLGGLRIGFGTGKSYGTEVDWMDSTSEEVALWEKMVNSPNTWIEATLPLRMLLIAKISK
# SYVN1 (human) = test system: SYVN1 (human)
# [1] = test system: Scavenger receptor cysteine-rich domain-containing protein LOC284297 (human)
# Secretagogin (human) = test system: Secretagogin (human)
# [2] = test system: Selenium-binding protein 1 (human)
# Selenoprotein P (human) = test system: Selenoprotein P (human)
# Septin-2 (human) = test system: Septin-2 (human)
sequence,measurement,setting,value
GGGGACAGGGGTATGGGGAGGGG [G4-3 biotinylated (CtG)],binding signal,SYMPK (human),-0.323 z-score
same,binding signal,SYNGR2 (human),-0.326 z-score
same,binding signal,SYNGR4 (human),-0.326 z-score
same,binding signal,SYTL2,3.17 z-score
same,binding signal,SYVN1 (human),-0.311 z-score
same,binding signal,[1],-0.337 z-score
same,binding signal,Secretagogin (human),-0.34 z-score
same,binding signal,[2],-0.329 z-score
same,binding signal,Selenoprotein P (human),-0.328 z-score
same,binding signal,Septin-2 (human),-0.305 z-score
